Source: the supplement of paper PMC12542422
Where a name gives a salt, the structure may show the parent alone. ± gives the standard deviation of the averaged measurements. The list shows a part of the results. These are raw signals, not scaled to a control.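 Ribosome-assembly readouts in HeLa cells were imaged via ENP1 staining, with or without export block, or inducible tagged ribosomal protein reporters. Machine learning classified per-cell signal location versus solvent (DMSO) controls. Hits surpassed the DMSO false-positive mean by five standard deviations and were visually confirmed; three biological replicates.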

Experiments:
[1] = tested on: HeLa K (ENP1 immunofluorescence, +LMB); assay: fraction of cells with nucleolar or nucleolar/nucleoplasmic ENP1 signal (MainHitrate); higher = more cells with nucleolar/nuclear readout signal (for ENP1 -LMB: less RNAPI inhibition; for +LMB ENP1 and RP reporters: stronger nuclear/nucleolar retention, i.e. ribosome biogenesis defect); settings: concentration: 1 µM; treatment time: 6 h; ENP1 +LMB; leptomycin B: 20 nM, last 1.5 h
[2] = tested on: HeLa K (ENP1 immunofluorescence, no LMB); assay: as above; settings: concentration: 1 µM; treatment time: 6 h; ENP1 -LMB; leptomycin B: none
HeLa RPS2-YFP reporter = assay: fraction of reporter-positive cells with nuclear (nucleolar or nucleolar/nucleoplasmic) RPS2-YFP (MainHitrate); higher = more cells with nucleolar/nuclear readout signal (for ENP1 -LMB: less RNAPI inhibition; for +LMB ENP1 and RP reporters: stronger nuclear/nucleolar retention, i.e. ribosome biogenesis defect); settings: concentration: 1 µM; treatment time: 6 h
HeLa RPL29-GFP reporter = assay: fraction of reporter-positive cells with nuclear (nucleolar or nucleolar/nucleoplasmic) RPL29-GFP (MainHitrate); higher = more cells with nucleolar/nuclear readout signal (for ENP1 -LMB: less RNAPI inhibition; for +LMB ENP1 and RP reporters: stronger nuclear/nucleolar retention, i.e. ribosome biogenesis defect); settings: concentration: 1 µM; treatment time: 6 h

SMILES | fraction [1] | fraction [2] | fraction of reporter-positive cells with nuclear (HeLa RPS2-YFP reporter) | fraction of reporter-positive cells with nuclear (HeLa RPL29-GFP reporter)
CC(C)NCC(O)COc1ccc(COCCOC(C)C)cc1 (stereo not drawn) [Bisoprolol] | 0.092 ± 0.09 | 0.9979 ± 0.0036 | 0.124 ± 0.079 | 0.196 ± 0.046
CC(=O)Nc1c(I)c(C(=O)N[C@H]2C(O)O[C@H](CO)[C@@H](O)[C@@H]2O)c(I)c(N(C)C(C)=O)c1I (stereo partly drawn) [Metrizamide] | 0.166 ± 0.23 | 0.993 ± 0.012 | 0.178 ± 0.17 | 0.28 ± 0.24
CN(C)c1cc(NC(=O)CNC(C)(C)C)c(O)c2c1C[C@H]1C[C@H]3[C@H](N(C)C)C(O)=C(C(N)=O)C(=O)[C@@]3(O)C(O)=C1C2=O [Tigecycline] | 0.104 ± 0.088 | 0.9985 ± 0.0026 | 0.118 ± 0.071 | 0.198 ± 0.071
N[C@H](C(=O)O)[C@H](O)c1ccc(O)c(O)c1 [Droxidopa (L-DOPS)] | 0.0944 ± 0.13 | 0.985 ± 0.026 | 0.116 ± 0.095 | 0.196 ± 0.048
N=C(N)NC(=N)N1CCOCC1 [Moroxydine] | 0.0873 ± 0.11 | 0.991 ± 0.016 | 0.109 ± 0.08 | 0.218 ± 0.063
C=CCc1cc(OC)c(O)c(C(=O)NCCO)c1 [Alibendol] | 0.117 ± 0.17 | 0.985 ± 0.025 | 0.107 ± 0.063 | 0.21 ± 0.061
COc1cc(C(=O)NS(=O)(=O)c2ccccc2C)ccc1Cc1cn(C)c2ccc(NC(=O)OC3CCCC3)cc12 [Zafirlukast (Accolate)] | 0.0838 ± 0.078 | 0.9984 ± 0.0027 | 0.115 ± 0.076 | 0.198 ± 0.074
O=C(O)COCCN1CCN(C(c2ccccc2)c2ccc(Cl)cc2)CC1 (stereo not drawn) [Cetirizine Dihydrochloride] | 0.0597 ± 0.04 | 0.9988 ± 0.0022 | 0.214 ± 0.23 | 0.438 ± 0.36
Cc1ccc(NC(=O)c2ccc(CN3CCN(C)CC3)cc2)cc1Nc1nc(-c2cccnc2)cs1 [Masitinib (AB1010)] | 0.08 ± 0.05 | 0.998 ± 0.0034 | 0.103 ± 0.092 | 0.193 ± 0.028
CC1(C)S[C@@H]2[C@H](NC(=O)C(C(=O)O)c3ccccc3)C(=O)N2[C@H]1C(=O)O (stereo partly drawn) [Carbenicillin disodium] | 0.0752 ± 0.097 | 0.976 ± 0.042 | 0.105 ± 0.077 | 0.218 ± 0.063
COC(=O)C1=CO[C@@H](O)[C@@H]2C(CO)=CC[C@H]12 [Genipin] | 0.114 ± 0.17 | 0.993 ± 0.013 | 0.109 ± 0.08 | 0.246 ± 0.078
COc1cccc(N(C)C(=S)Oc2ccc3c(c2)CCCC3)n1 [Liranaftate] | 0.0872 ± 0.11 | 0.99 ± 0.017 | 0.117 ± 0.088 | 0.231 ± 0.077
CCCC(=O)[O-].[Na+] [Sodium butyrate] | 0.189 ± 0.29 | 0.9949 ± 0.0089 | 0.1 ± 0.038 | 0.212 ± 0.076
CC(C)c1nc(CN(C)C(=O)N[C@@H](CCN2CCOCC2)C(=O)N[C@H](CC[C@H](Cc2ccccc2)NC(=O)OCc2cncs2)Cc2ccccc2)cs1 [Cobicistat (GS-9350)] | 0.0532 ± 0.065 | 0.974 ± 0.044 | 0.117 ± 0.11 | 0.212 ± 0.06
Cc1ccc(C(=O)C(C)CN2CCCCC2)cc1 (stereo not drawn) [Tolperisone HCl] | 0.107 ± 0.14 | 0.991 ± 0.015 | 0.143 ± 0.12 | 0.228 ± 0.051
CO[C@@]1(NC(=O)C(C(=O)O)c2ccc(O)cc2)C(=O)N2C(C(=O)O)=C(CSc3nnnn3C)CO[C@@H]21 (stereo partly drawn) [Moxalactam Disodium] | 0.0927 ± 0.12 | 0.994 ± 0.011 | 0.0962 ± 0.052 | 0.29 ± 0.22
CC1(C)S[C@@H]2[C@H](NC(=O)[C@H](N)c3ccc(O)cc3)C(=O)N2[C@H]1C(=O)O [Amoxicillin (Amoxycillin)] | 0.0998 ± 0.14 | 0.992 ± 0.013 | 0.109 ± 0.084 | 0.223 ± 0.064
CCN[C@@H]1C[C@H](N)[C@@H](O[C@H]2OC(CN)=CC[C@H]2N)[C@H](O)[C@H]1O[C@H]1OC[C@](C)(O)[C@H](NC)[C@H]1O [Netilmicin Sulfate] | 0.0812 ± 0.096 | 0.978 ± 0.037 | 0.134 ± 0.12 | 0.219 ± 0.054
CCOc1nc2cccc(C(=O)OC(C)OC(=O)OC3CCCCC3)c2n1Cc1ccc(-c2ccccc2-c2nn[nH]n2)cc1 (stereo not drawn) [Candesartan cilexetil (Atacand)] | 0.202 ± 0.31 | 0.993 ± 0.012 | 0.11 ± 0.054 | 0.235 ± 0.081
CNC(=O)CN(CCN(CCN(CC(=O)O)CC(=O)NC)CC(=O)O)CC(=O)O.O.[Gd] [Gadodiamide (Omniscan)] | 0.0803 ± 0.085 | 0.9985 ± 0.0026 | 0.124 ± 0.082 | 0.211 ± 0.068
CNC(=C[N+](=O)[O-])NCCSCc1csc(CN(C)C)n1 [Nizatidine] | 0.14 ± 0.21 | 0.989 ± 0.019 | 0.123 ± 0.07 | 0.226 ± 0.059
CC(/C=C1\SC(=S)N(CC(=O)O)C1=O)=C\c1ccccc1 [Epalrestat] | 0.134 ± 0.2 | 0.985 ± 0.025 | 0.0868 ± 0.078 | 0.222 ± 0.062
CCCc1nn(C)c2c(=O)[nH]c(-c3cc(S(=O)(=O)N4CCN(C)CC4)ccc3OCC)nc12 [Sildenafil citrate] | 0.0911 ± 0.12 | 0.9989 ± 0.002 | 0.114 ± 0.08 | 0.235 ± 0.08
NC(=O)N1c2ccccc2C=Cc2ccccc21 [Carbamazepine (Carbatrol)] | 0.0629 ± 0.043 | 0.998 ± 0.0034 | 0.106 ± 0.092 | 0.225 ± 0.049
NC1CCN(c2c(F)cc3c(=O)c(C(=O)O)cn(C4CC4)c3c2Cl)C1 (stereo not drawn) | 0.105 ± 0.16 | 0.993 ± 0.012 | 0.138 ± 0.14 | 0.218 ± 0.091
COc1c(N2CCNC(C)C2)c(F)cc2c(=O)c(C(=O)O)cn(C3CC3)c12 (stereo not drawn) [Gatifloxacin] | 0.117 ± 0.022 | 0.9983 ± 0.0029 | 0.109 ± 0.068 | 0.193 ± 0.07
CCCCCCCCCCCCCCCC(=O)O[C@@H]1[C@@H](O)[C@@H](O)[C@@H]([C@H](NC(=O)[C@@H]2C[C@@H](CCC)CN2C)[C@H](C)Cl)O[C@@H]1SC [Clindamycin palmitate HCl] | 0.0568 ± 0.069 | 0.985 ± 0.027 | 0.0995 ± 0.084 | 0.201 ± 0.05
